# Reference: article PMC6728143
# Amino acid sequences for entries named in this document (tags omitted). A change or cut given only in a name is not applied to a line headed by its entry.
# UniProt P06748, whole entry: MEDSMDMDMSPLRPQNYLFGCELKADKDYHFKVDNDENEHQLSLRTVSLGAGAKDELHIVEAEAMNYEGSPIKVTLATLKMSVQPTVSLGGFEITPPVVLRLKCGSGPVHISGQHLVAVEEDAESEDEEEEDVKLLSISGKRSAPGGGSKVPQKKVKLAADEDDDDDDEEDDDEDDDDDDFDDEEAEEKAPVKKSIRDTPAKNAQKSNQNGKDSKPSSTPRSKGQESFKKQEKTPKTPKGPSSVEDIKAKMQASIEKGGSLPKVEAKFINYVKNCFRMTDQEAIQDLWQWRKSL
# UniProt P19338, whole entry: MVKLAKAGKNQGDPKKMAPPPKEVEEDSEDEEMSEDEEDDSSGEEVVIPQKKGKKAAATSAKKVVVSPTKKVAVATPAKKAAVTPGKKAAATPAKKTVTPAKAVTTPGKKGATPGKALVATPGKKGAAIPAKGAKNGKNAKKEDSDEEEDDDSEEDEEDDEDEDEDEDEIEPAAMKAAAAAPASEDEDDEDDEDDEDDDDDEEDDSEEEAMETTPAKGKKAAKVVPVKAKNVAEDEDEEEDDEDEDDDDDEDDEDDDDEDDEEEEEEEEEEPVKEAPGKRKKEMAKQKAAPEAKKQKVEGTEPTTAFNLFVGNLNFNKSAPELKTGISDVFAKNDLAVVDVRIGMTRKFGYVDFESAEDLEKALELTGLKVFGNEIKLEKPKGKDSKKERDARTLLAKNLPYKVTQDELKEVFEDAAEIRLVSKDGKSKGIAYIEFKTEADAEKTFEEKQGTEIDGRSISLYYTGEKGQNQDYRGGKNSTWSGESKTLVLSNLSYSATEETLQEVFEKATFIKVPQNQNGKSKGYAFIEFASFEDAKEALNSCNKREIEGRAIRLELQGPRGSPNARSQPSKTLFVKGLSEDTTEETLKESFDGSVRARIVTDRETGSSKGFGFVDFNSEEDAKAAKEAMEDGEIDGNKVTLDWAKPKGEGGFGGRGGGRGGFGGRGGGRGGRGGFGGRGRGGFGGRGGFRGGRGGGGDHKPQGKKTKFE
# UniProt P05455: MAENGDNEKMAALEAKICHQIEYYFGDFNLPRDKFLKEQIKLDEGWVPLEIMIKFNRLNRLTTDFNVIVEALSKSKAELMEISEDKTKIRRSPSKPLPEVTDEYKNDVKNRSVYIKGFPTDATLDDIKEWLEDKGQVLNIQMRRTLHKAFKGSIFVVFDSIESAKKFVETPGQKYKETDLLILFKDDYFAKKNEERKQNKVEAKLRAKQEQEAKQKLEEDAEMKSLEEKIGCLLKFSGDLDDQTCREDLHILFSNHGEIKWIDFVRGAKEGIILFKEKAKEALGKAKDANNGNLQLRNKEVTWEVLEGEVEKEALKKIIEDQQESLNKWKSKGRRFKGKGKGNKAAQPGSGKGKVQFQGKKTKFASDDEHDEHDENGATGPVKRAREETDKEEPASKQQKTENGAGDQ
# UniProt Q9UKV8, whole entry: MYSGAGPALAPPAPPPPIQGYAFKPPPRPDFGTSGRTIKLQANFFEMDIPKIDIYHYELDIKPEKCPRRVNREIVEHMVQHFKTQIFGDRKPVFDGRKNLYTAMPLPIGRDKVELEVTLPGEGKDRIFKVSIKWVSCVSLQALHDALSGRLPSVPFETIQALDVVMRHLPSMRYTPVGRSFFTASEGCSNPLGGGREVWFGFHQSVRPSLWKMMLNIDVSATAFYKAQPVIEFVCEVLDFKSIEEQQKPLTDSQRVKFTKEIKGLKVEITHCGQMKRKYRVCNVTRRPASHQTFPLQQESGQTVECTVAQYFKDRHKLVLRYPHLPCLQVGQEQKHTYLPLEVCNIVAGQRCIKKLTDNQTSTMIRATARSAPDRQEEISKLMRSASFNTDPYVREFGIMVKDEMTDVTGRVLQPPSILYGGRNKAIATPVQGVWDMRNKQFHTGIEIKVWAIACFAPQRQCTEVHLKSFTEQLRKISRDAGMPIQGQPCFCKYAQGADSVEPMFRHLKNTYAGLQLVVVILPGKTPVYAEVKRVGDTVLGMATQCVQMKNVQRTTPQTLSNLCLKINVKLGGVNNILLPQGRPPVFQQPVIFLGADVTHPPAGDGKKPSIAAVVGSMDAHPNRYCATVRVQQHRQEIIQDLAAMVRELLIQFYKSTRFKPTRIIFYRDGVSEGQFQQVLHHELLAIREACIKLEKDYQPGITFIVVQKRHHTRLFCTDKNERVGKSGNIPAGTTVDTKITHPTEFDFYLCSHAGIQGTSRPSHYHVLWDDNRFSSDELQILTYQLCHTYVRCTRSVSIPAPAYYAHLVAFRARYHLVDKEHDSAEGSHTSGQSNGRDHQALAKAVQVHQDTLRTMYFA
# How the values were obtained:
# Test in all cases: streptavidin pull-down, mass spectrometry
# [1] = target: nucleophosmin (Homo sapiens (MDA-MB-231)) (UniProt P06748); details: in vitro packaging reaction with membranes, cytosol, ATP, may be indirect; protein in an extract; label: 3' biotin
# [2] = target: nucleolin (Homo sapiens (MDA-MB-231)) (UniProt P19338); details: in vitro packaging reaction with membranes, cytosol, ATP, may be indirect; protein in an extract; label: 3' biotin
# [3] = target: Lupus La protein (La), endogenous (Homo sapiens (MDA-MB-231)) (UniProt P05455); details: in vitro packaging reaction with membranes, cytosol, ATP; protein in an extract; label: 3' biotin
# [4] = target: T1, SYNCRIP (Homo sapiens (MDA-MB-231)) (UniProt O60506); details: not detected, presence in input not shown; protein in an extract; label: 3' biotin
# T1 sequence (looked up, limits assumed): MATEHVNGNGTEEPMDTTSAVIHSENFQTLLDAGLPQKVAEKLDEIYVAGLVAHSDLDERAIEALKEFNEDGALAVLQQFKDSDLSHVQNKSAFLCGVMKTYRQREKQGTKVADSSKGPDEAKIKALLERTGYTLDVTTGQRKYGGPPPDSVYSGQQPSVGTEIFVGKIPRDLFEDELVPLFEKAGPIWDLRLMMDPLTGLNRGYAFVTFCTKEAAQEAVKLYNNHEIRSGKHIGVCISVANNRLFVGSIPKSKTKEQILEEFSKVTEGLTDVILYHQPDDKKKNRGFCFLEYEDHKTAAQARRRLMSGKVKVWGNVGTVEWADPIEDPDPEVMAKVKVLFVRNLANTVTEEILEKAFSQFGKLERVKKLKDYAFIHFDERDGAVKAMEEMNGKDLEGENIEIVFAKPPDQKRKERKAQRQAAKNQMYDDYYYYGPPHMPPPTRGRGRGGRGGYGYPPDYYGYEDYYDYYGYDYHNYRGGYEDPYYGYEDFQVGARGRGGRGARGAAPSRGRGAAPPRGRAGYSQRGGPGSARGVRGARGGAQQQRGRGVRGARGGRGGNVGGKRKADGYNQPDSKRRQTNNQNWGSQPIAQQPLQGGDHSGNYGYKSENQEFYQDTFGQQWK
# [5] = target: Ago2 (Homo sapiens (MDA-MB-231)) (UniProt Q9UKV8); details: not detected, protein absent from buoyant vesicles; protein in an extract; label: 3' biotin
sequence,measurement,setting,value
UGGAGUGUGACAAUGGUGUUUG [3'-biotinylated miR-122],binding result,[1],binds
same,binding result,[2],binds
same,binding result,[3],binds
same,binding result,[4],no binding
same,binding result,[5],no binding

# The exact form of at least one protein or probe is not confirmed. Where cells or extracts were used, other partners may take part. For some assays here: No signal at the amounts used counts as a negative. For some assays here: Where a protein sequence is shown, tags need not be part of it.
